# Measured values taken from publication PMC6214915 (Scientific Reports, 2018).
# Assay: general procedure: Fmoc solid-phase peptide synthesis; Rink amide resin; Oxyma/DIC
# Conditions: whole synthesis
substance,measurement,value
KCVRQNNKRVCK-NH2,isolated yield,66%
